PubChem BioAssay AID686943, Drosophila RNAi Screening Center, 2013
In all, the deposit lists about 23,000 reagents; shown is a random part of those with a known target gene and a result. 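Extra replicates exist only for a retested subset of genes; insulin dose and duration not given; both raised and lowered dpERK matter.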 Names joined by + are all predicted targets of the reagent. Not all columns of the deposit are shown. Not stated in the record: the amount of reagent, the time to read-out.

- Aim: 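Search across the genome for regulators of signalling from receptor tyrosine kinase to ERK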 (primary screen)
- Cells: Drosophila S2R+ haemocyte-like cells expressing YFP-tagged ERK (Rolled)
- Knock-down reagent: long dsRNA against Drosophila genes
- Challenge: insulin stimulation versus unstimulated cells; dose and duration not given
- Measured: 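Per-plate z-scores of phospho-ERK immunostaining normalised to YFP-tagged ERK, measured with and without insulin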
- Reading the numbers: replicate 1, z-score of dpERK with insulin and replicate 2, z-score of dpERK with insulin: higher = more active ERK per ERK-YFP after insulin

CG16890 (GeneID 34781) [SID104181682]
- replicate 1, z-score of dpERK with insulin: -0.38
- replicate 2, z-score of dpERK with insulin: -0.53

gdl-ORF39 + gdl [SID104191142]
- replicate 1, z-score of dpERK with insulin: 0.22
- replicate 2, z-score of dpERK with insulin: -0.59

Eaat2 (GeneID 33247) [SID104179824]
- replicate 1, z-score of dpERK with insulin: -0.31
- replicate 2, z-score of dpERK with insulin: 0.9

Eaat2 (GeneID 33247) [SID104180541]
- replicate 1, z-score of dpERK with insulin: -0.24
- replicate 2, z-score of dpERK with insulin: 0.03

CG32075 (GeneID 326192) [SID104190414]
- replicate 1, z-score of dpERK with insulin: -0.07
- replicate 2, z-score of dpERK with insulin: 0.42

Ndfip (GeneID 326197) [SID104190993]
- replicate 1, z-score of dpERK with insulin: 0.69
- replicate 2, z-score of dpERK with insulin: 0.18

phtm (GeneID 32857) [SID104200029]
- replicate 1, z-score of dpERK with insulin: 3.37
- replicate 2, z-score of dpERK with insulin: 1.65

CG1688 (GeneID 36005) [SID104185726]
- replicate 1, z-score of dpERK with insulin: 1.1
- replicate 2, z-score of dpERK with insulin: 0.54

CG12237 (GeneID 32967) [SID104199241]
- replicate 1, z-score of dpERK with insulin: -0.02
- replicate 2, z-score of dpERK with insulin: 0.04

CG12237 (GeneID 32967) [SID104201780]
- replicate 1, z-score of dpERK with insulin: 0.2
- replicate 2, z-score of dpERK with insulin: 0.21

tctn + B9d2 [SID104182952]
- replicate 1, z-score of dpERK with insulin: -0.34
- replicate 2, z-score of dpERK with insulin: -0.02

Cec2 (GeneID 3772199) [SID104201516]
- replicate 1, z-score of dpERK with insulin: -0.19
- replicate 2, z-score of dpERK with insulin: 0.89

CG6793 (GeneID 39369) [SID104190506]
- replicate 1, z-score of dpERK with insulin: 0.97
- replicate 2, z-score of dpERK with insulin: 0.29

CG13982 (GeneID 33895) [SID104182106]
- replicate 1, z-score of dpERK with insulin: 1.46
- replicate 2, z-score of dpERK with insulin: 0.76

Lint-1 + rtv [SID104199333]
- replicate 1, z-score of dpERK with insulin: 0.07
- replicate 2, z-score of dpERK with insulin: 0.67

CG32214 (GeneID 317919) [SID104189405]
- replicate 1, z-score of dpERK with insulin: 0.68
- replicate 2, z-score of dpERK with insulin: 0.08

CG31098 (GeneID 43057) [SID104194051]
- replicate 1, z-score of dpERK with insulin: -0.08
- replicate 2, z-score of dpERK with insulin: -0.14

thoc7 (GeneID 38033) [SID104188304]
- replicate 1, z-score of dpERK with insulin: -0.15
- replicate 2, z-score of dpERK with insulin: -0.2

Mst57Db (GeneID 43122) [SID104201266]
- replicate 1, z-score of dpERK with insulin: 0.24
- replicate 2, z-score of dpERK with insulin: 0.21

Pkcdelta (GeneID 32191) [SID104199148]
- replicate 1, z-score of dpERK with insulin: 0
- replicate 2, z-score of dpERK with insulin: -0.02

Pkcdelta (GeneID 32191) [SID104199191]
- replicate 1, z-score of dpERK with insulin: 0.73
- replicate 2, z-score of dpERK with insulin: -0.04

dyl (GeneID 38531) [SID104188258]
- replicate 1, z-score of dpERK with insulin: 0.13
- replicate 2, z-score of dpERK with insulin: -0.83

dyl (GeneID 38531) [SID104188259]
- replicate 1, z-score of dpERK with insulin: 0.79
- replicate 2, z-score of dpERK with insulin: 1.47

CG11327 (GeneID 33940) [SID104181938]
- replicate 1, z-score of dpERK with insulin: -0.36
- replicate 2, z-score of dpERK with insulin: 0.02

CG17193 (GeneID 50044) [SID104194979]
- replicate 1, z-score of dpERK with insulin: 0.06
- replicate 2, z-score of dpERK with insulin: 0.23

tra (GeneID 39849) [SID104191197]
- replicate 1, z-score of dpERK with insulin: 0.52
- replicate 2, z-score of dpERK with insulin: 0.63

drpr (GeneID 38218) [SID104187935]
- replicate 1, z-score of dpERK with insulin: 0
- replicate 2, z-score of dpERK with insulin: 0.14

drpr (GeneID 38218) [SID104188317]
- replicate 1, z-score of dpERK with insulin: -0.16
- replicate 2, z-score of dpERK with insulin: 0.01

CG13692 (GeneID 33216) [SID104180153]
- replicate 1, z-score of dpERK with insulin: 0.15
- replicate 2, z-score of dpERK with insulin: -0.13

qkr58E-3 (GeneID 37559) [SID104184503]
- replicate 1, z-score of dpERK with insulin: 0.12
- replicate 2, z-score of dpERK with insulin: 0.99

CG2641 (GeneID 40921) [SID104195233]
- replicate 1, z-score of dpERK with insulin: 0.35
- replicate 2, z-score of dpERK with insulin: 1.74

Ordered by “replicate 2, z-score of dpERK with insulin” (lowest first): some entries from above.
CG13692 (GeneID 33216) [SID104180153]
- replicate 1, z-score of dpERK with insulin: 0.15
- replicate 2, z-score of dpERK with insulin: -0.13

drpr (GeneID 38218) [SID104188317]
- replicate 1, z-score of dpERK with insulin: -0.16
- replicate 2, z-score of dpERK with insulin: 0.01

drpr (GeneID 38218) [SID104187935]
- replicate 1, z-score of dpERK with insulin: 0
- replicate 2, z-score of dpERK with insulin: 0.14

tra (GeneID 39849) [SID104191197]
- replicate 1, z-score of dpERK with insulin: 0.52
- replicate 2, z-score of dpERK with insulin: 0.63
